Experimental data as given in PubChem BioAssay AID1487 (National Center for Advancing Translational Sciences (NCATS), 2009).
Several values for one entry are separate records, joined by “and”; a condition that tells them apart may be missing. Equal values may be shown once. This is one part of the list. These are further read-outs of the screen, such as a control signal, another cell line or another target. No call is given for them. Most of these compounds were active or inconclusive in the main read-out, so they are no random draw. Potencies come from curve fits of mixed quality, noted in brackets.

Experiment: qHTS Assay for Modulators of Lamin A Splicing
Details: HeLa LMNA splicing GFP/RFP minigene ratio, 48 h
Outline: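 Read-out is the ratio of GFP to DsRed2 object intensity, acquired by 488 nm laser-scanning cytometry on HeLa lamin A-EGFP minigene reporter cells. Compound incubation 48 hrs at 37 °C in Opti-MEM with 2% FBS; DMSO 0.5% final.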

[1] = measured here: RFP viability control channel
[2] = measured here: GFP splicing reporter channel

Row | Structure (SMILES) | AC50 [1] | AC50 [2]
1 | COc1ccc(-c2cc(=O)c(C(=O)c3ccc(C)cc3)n[nH]2)cc1 | 20 µM [falling, partial curve, poor fit] | –
2 | Cc1nn(Cc2ccccc2)c(Cl)c1/C=C/C(=O)OC(C)C(=O)N1CCCC1 (stereo not given) | – | 0.02 µM [falling, full curve, poor fit]
3 | CC(=O)c1c(C)[nH]c(C(=O)OCC(=O)Nc2cc(C(F)(F)F)ccc2N2CCOCC2)c1C | 35.5 µM [rising, single point] | 35.5 µM [rising, single point]
4 | COC(=O)CCC/C=C1/SCC(NC(=O)c2ccccc2)C1O (stereo not given) | – | 0.282 µM [rising, full curve, poor fit]
5 | Cn1cnnc1SCC(=O)Nc1ccc2nc(SCc3cccc4ccccc34)sc2c1 | – | 17.8 µM [rising, single point]
6 | Cc1cc(Br)ccc1NC(=O)CN1C(=O)C2C3CC(c4ccccc4)C(C3)C2C1=O (stereo not given) | 25.1 µM [falling, single point] | 35.5 µM [falling, single point]
7 | Clc1ccccc1CN(Cc1ccccc1)C(c1cccs1)c1nnnn1C1CCCC1 (stereo not given) | 31.6 µM [rising, single point] | 14.1 µM [rising, single point]
8 | O=C(C1CCCN1C(=O)c1cccs1)N1CCc2ccccc21 (stereo not given) | – | 0.224 µM [rising, full curve, poor fit]
9 | CC1CC(C)CN(S(=O)(=O)c2ccc(C(=O)N(c3ccccn3)C3CCCCC3)cc2)C1 (stereo not given) | 0.0708 µM [falling, full curve] | –
10 | CC1(C)CC(=O)C2=C(C1)OC(N)=C(C#N)C2c1cn(-c2ccccc2)nc1-c1ccc(F)cc1 (stereo not given) | 7.08 µM [rising, partial curve, poor fit] | –
11 | CN(C)CCCN1c2ccccc2Sc2ccc(Cl)cc21 | 224 nM [rising, full curve, poor fit] and 15.8 nM [falling, full curve] and 35.5 µM [rising, single point] | –
12 | Cc1cccc(N=N/C(=C\O)C(=O)c2cccs2)c1 | 35.5 µM [falling, single point] | 11.2 µM [falling, partial curve, poor fit]
13 | COc1ccc(NC(=O)c2cc(=O)c3ccccc3o2)cn1 | 11.2 µM [rising, single point] | –
14 | COc1ccc(S(=O)(=O)Nc2cc(C(=O)NC(C)C)ccc2N2CCOCC2)cc1 | 15.8 µM [rising, single point] | –
15 | COc1cccc2c1OC[C@@H](CO)[C@H]2N(C)C(=O)Nc1ccc(Cl)cc1Cl | 15.8 µM [falling, partial curve] | –
16 | O=C1CCC2CCCCC2(O)O1 (stereo not given) | 10 µM [falling, partial curve] | –
17 | COc1ccccc1NS(=O)(=O)c1cccc(NC(=O)Nc2cccc(Cl)c2)c1 | – | 22.4 µM [falling, single point]
18 | O=C1c2ccccc2S(=O)(=O)N1CC(O)COc1ccc(Cl)cc1 (stereo not given) | 11.2 µM [rising, partial curve] | –

An excerpt from above in order of heavy-atom count, rising.
Row | Structure (SMILES) | AC50 [1] | AC50 [2]
8 | O=C(C1CCCN1C(=O)c1cccs1)N1CCc2ccccc21 (stereo not given) | – | 0.224 µM [rising, full curve, poor fit]
17 | COc1ccccc1NS(=O)(=O)c1cccc(NC(=O)Nc2cccc(Cl)c2)c1 | – | 22.4 µM [falling, single point]
7 | Clc1ccccc1CN(Cc1ccccc1)C(c1cccs1)c1nnnn1C1CCCC1 (stereo not given) | 31.6 µM [rising, single point] | 14.1 µM [rising, single point]

More results:

Row | Structure (SMILES) | AC50 [1] | AC50 [2]
19 | Cc1nn(CC2CC2)c(=O)n1-c1ccc(F)cc1 | – | 0.00398 µM [rising, full curve, poor fit]
20 | Clc1ccc(Cl)c2sc(N3CCCC3)nc12 | 14.1 µM [falling, partial curve, poor fit] | –
21 | CCOC(=O)C1=C(C)NC(=O)CC1c1cc(OC)c(OC)cc1Br (stereo not given) | – | 0.00282 µM [rising, full curve, poor fit]
22 | CCOc1ccc(S(=O)(=O)N2CCN(C(=O)c3sccc3C)CC2)cc1 | 15.8 µM [rising, single point] | –
23 | OCCn1c(-c2ccc(F)cc2)csc1=Nc1ccccc1 | 25.1 µM [rising, partial curve] | 11.2 µM [rising, partial curve, poor fit]
24 | Oc1c(Br)cc(Br)cc1/C=N/NC(=S)N[C@H]1CC2C=CC1C2 (stereo not given in full) | 0.631 µM [falling, full curve] | 20 µM [falling, partial curve, poor fit]
25 | Cc1cccc(C)c1OCC(=O)Nc1cccc(NC(=O)c2ccco2)c1 | 5.01 µM [rising, partial curve, poor fit] | –
26 | CCOc1ccccc1N(CC(=O)Nc1ccc2c(c1)OCCO2)S(C)(=O)=O | 7.08 µM [rising, full curve, poor fit] | –
27 | CCCCC[C@H](O)/C=C\[C@@H]1[C@H](O)CC(=O)[C@@H]1CCCCCCC(=O)O | 0.00631 µM [falling, full curve, poor fit] | 0.00316 µM [falling, full curve]
28 | O=C(N/N=C/c1ccc(Cl)cc1)c1sccc1OCc1ccc(F)cc1 | 1.78 µM [rising, partial curve] | –
29 | Cc1c(NC(=O)Nc2ccccc2)cccc1[N+](=O)[O-] | 11.2 µM [rising, partial curve, poor fit] | –
30 | CCc1c(C)sc(NC(=S)NC(C)C2CCCO2)c1C(=O)OC (stereo not given) | 20 µM [rising, single point] | 31.6 µM [rising, single point]
31 | Cc1ccc(-c2noc(CCC(=O)NCCCN3CCN(c4cccc(Cl)c4)CC3)n2)cc1 | 35.5 µM [rising, single point] | –
32 | N#CCCn1cc(/C=N/NC(N)=S)c(-c2ccc(-c3ccccc3)cc2)n1 | 20 µM [falling, single point] | –
33 | COc1ccc(C(=O)Nc2cccc3cccnc23)cc1OC | 17.8 µM [falling, single point] | 35.5 µM [falling, single point]
34 | COc1ccc(Cn2nnnc2CN(CCCN2CCOCC2)Cc2cc3cc(OC)ccc3[nH]c2=O)cc1 | 5.62 µM [falling, single point] | 5.01 µM [falling, single point]
35 | COc1ccc(NC(=O)COC(=O)CC23CC4CC(CC(C4)C2)C3)c([N+](=O)[O-])c1 | 14.1 µM [rising, partial curve, poor fit] | –
